Experimental data reported in US20060121449A1, “Method for selection of compounds which inhibit clonal cell growth and use thereof” (priority 2002, published 2006).

Test system: Ehrlich ascites tumour
Conditions: Exp 18

## COc1cc2c(c(OC)c1OC)-c1ccc(OC)c(=O)cc1[C@@H](NC(C)=O)CC2 [Colchicine, reference compound]
At killing
  organs, findings on section: Normal organs
  subcutaneous fluid, findings on section: 0.5 mL
At killing (mouse 1 day 14, mice 2 and 3 day 16), control 37.3
  Animal weight on section: 32.8 g
